These results are taken from PubChem BioAssay AID493014 (National Center for Advancing Translational Sciences (NCATS), 2011).

Molecules are shown by their SMILES. Several values for one entry are separate records, joined by “and”; a condition that tells them apart may be missing. Equal entries are not always repeated. This is one part of the list. These are further read-outs of the screen, such as a control signal, another cell line or another target. No call is given for them. The list favours compounds with an active or inconclusive main result. Words in brackets tell the shape of the fitted curve; partial curves, single points and poor fits give uncertain potencies.

The assay can be described thus: qHTS Assay to Find Inhibitors of Chronic Active B-Cell Receptor Signaling. As to conditions: ABC-DLBCL IkBa-CBG/CBR reporter, luminescence ratio (green luciferase fused to IkBa over red control in TMD8 lymphoma cells), 4 h. A digest of the protocol: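 Doxycycline induced both beetle luciferases in TMD8 lymphoma cells; IKK-driven degradation limits the IkappaBalpha-fused green signal, while red luminescence normalises for cell number and nonspecific effects. Compounds tested up to 46 uM, 4 hrs.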
In general terms: qHTS replaces the single test concentration by a dilution series.

[1] abbreviates: measured here: CBR red luminescence, cell number.
Where [2] appears, read: measured here: IkBa-CBG green luminescence.

Broadly, the AC50 is the midpoint of the concentration-response curve, whichever way the signal moves. Consider `CCCn1c(-c2ccc(OC)cc2)nc2c(=O)n(C)c(=O)[nH]c21`, for which, under setting [1], the AC50 was 23.1 µM [rising, single point].
Still for that read-out and setting: as for `CC1(O)CC(=O)N(c2ccccc2)O1` (configuration not stated), the figure is 35.5 µM [falling, single point].
Take `COc1ccc(OCCCCN2CCC(C)CC2)cc1`: the AC50 by setting is: under setting [1], 4.47 µM [rising, partial curve, poor fit]; under setting [2], 3.55 µM [falling, single point].
Turning to `COc1ccccc1NC1=C(Cl)C(=O)N(c2ccccc2)C1=O`, the AC50 under setting [1] was 11.6 µM [falling, partial curve].
The same measure, in the same setting: as for `Cc1ccccc1C(=O)NCC(=O)Nc1ccc(C)c(S(=O)(=O)N2CCCCCC2)c1`, the figure is 22.4 µM [falling, single point]; as for `Cc1ccc(C)c(NC(=O)c2ccc(OC(=O)c3ccco3)cc2)c1`, 14.6 µM [falling, partial curve, poor fit].
For `Cc1[nH]c2ccccc2c1C(=O)COC(=O)c1c(-c2ccccc2)noc1C`, the AC50 runs as follows: under setting [1], 29.1 µM [falling, single point]; under setting [2], 29.1 µM [rising, partial curve, poor fit].
For the compound `CC(=O)Nc1ccc(C(=O)N(C2=NC(C)CS2)c2ccc(Cl)cc2)cc1` (configuration not stated), under setting [1], the half-maximal activity concentration (AC50) is 6.31 µM [rising, single point].
Same read-out and setting: as for `Cc1c(C)c(C)c(C(=O)c2ccc(NC(=O)c3ccccc3C(=O)O)cc2)c(C)c1C`, the figure is 8.91 µM [rising, partial curve, poor fit]; as for `O=C(CSc1n[nH]c(-c2cccs2)n1)N1CCCCC1`, 8.2 µM [falling, partial curve, poor fit].
`Cc1ccc(OCC(=O)Nc2cccc(O)c2)cc1C`: the AC50 under setting [1] was 3.98 µM [falling, full curve, poor fit].
The same measure, in the same setting: as for `CCN(CC)S(=O)(=O)c1ccc(C(=O)NCc2ccc3c(c2)cc(C)n3C)cc1`, the figure is 23.1 µM [rising, single point]; as for `CCc1ccccc1NC(=O)C1=CC(c2cccs2)=NS(=O)(=O)N1C`, 2.82 µM [rising, single point]; as for `CCc1nc2oc3ccccc3c(=O)c2c(=O)n1-c1ccc(C)cc1`, 2 µM [falling, full curve].
The same measure, in the same setting: the same measure for `Oc1ccccc1/C=N/NC(=S)NC1CC2C=CC1C2` (configuration not stated): 0.794 µM [falling, full curve]; for `Cc1ccc(NC(=O)c2cc(-c3cccs3)nc3ccccc23)nc1`: 11.2 µM [falling, single point].
The same measure, in the same setting: the same measure for `CC(C)(C)C(=O)NNC(=O)c1cc2sccc2s1`: 3.16 µM [rising, single point]; for `CCOC(=O)C1CCN(C(=O)c2cc(C(C)(C)C)nn2Cc2ccccc2)CC1`: 3.16 µM [rising, full curve, poor fit].
For the compound `COc1ccc(NC(=O)C2CCCN(S(=O)(=O)c3cccs3)C2)cc1OC` (configuration not stated), the AC50 under setting [1] is 2.59 µM [rising, partial curve, poor fit].
Regarding `C=CC[C@H](CC(=O)NCCO)C(=O)N[C@@H](C)COC(=O)[C@@H](CC=C)CC(=O)OC(C)(C)C`, the AC50 under setting [1] was 0.259 µM [rising, full curve, poor fit].
Consider `O=C(COc1ccc(Cl)cc1)Nc1ccccc1CO`, for which, under setting [1], the concentration at half-maximal activity (AC50) was 7.94 µM [falling, partial curve].
The same measure, in the same setting: as for `Cc1cc(=O)oc2c(C)c(OCC(=O)N3CCC(C(=O)O)CC3)ccc12`, the figure is 15.8 µM [falling, single point]; as for `O=C(Nc1cccc2ccccc12)N1CCN(Cc2ccc3c(c2)OCO3)CC1`, 0.731 µM [falling, full curve, poor fit].
The same measure, in the same setting: the same measure for `O=[N+]([O-])c1cccc(/C=N/Nc2nccnc2Cl)c1`: 12.6 µM [rising, partial curve, poor fit].
Take `CNc1nnc(-c2ccco2)s1`: the AC50 under setting [1] is 0.0891 µM [rising, full curve, poor fit].
Regarding `O=C(NCC1CCCO1)C1CC(c2ccccc2Cl)=NO1` (configuration not stated), the concentration at half-maximal activity (AC50) under setting [1] is 13 µM [rising, partial curve, poor fit].
The same measure, in the same setting: as for `O=C(NCC(c1cccnc1)N1CCN(c2ccccc2F)CC1)OCc1ccccc1` (configuration not stated), the figure is 2.06 µM [rising, partial curve, poor fit]; as for `CCc1nc(SCC(=O)N2CCCc3ccccc32)c2oc3ccccc3c2n1`, 2.82 µM [falling, partial curve, poor fit].
As for `CCCCc1cc(O)c(CCCC)c(O)c1`, under setting [2], the AC50 is 11.2 µM [falling, partial curve].
Regarding `O=C(Nc1ccccc1F)Nc1ccccc1F`, the concentration at half-maximal activity (AC50) under setting [1] is 10 µM [falling, partial curve, poor fit].
Same read-out and setting: as for `CCOC(=O)C1=C(COC(=O)c2cc(S(=O)(=O)N(C)C)ccc2C)NC(=O)NC1C` (configuration not stated), the figure is 7.31 µM [falling, partial curve, poor fit]; as for `Cc1ccc(C(=O)c2nc3c(n2O)CCCC3)cc1`, 9.2 µM [falling, partial curve, poor fit]; as for `O=c1cc(N2CCc3ccccc32)[nH]c(=O)n1-c1ccc(Cl)cc1`, 11.2 µM [falling, partial curve, poor fit].
Still for that read-out and setting: as for `COc1ccc2sc(NC(C)=O)nc2c1`, the figure is 6.51 µM [rising, single point]; as for `CC(C)(C)NS(=O)(=O)c1ccc(NS(C)(=O)=O)cc1`, 0.103 µM [rising, full curve, poor fit]; as for `O=C(COc1ccc(Cl)cc1)Nc1ccc(C(=O)O)cc1NC(=O)COc1ccc(Cl)cc1`, 10 µM [falling, partial curve].
Same read-out and setting: as for `COc1ccccc1-c1ccc(Nc2cccc(C(C)=O)c2)nn1`, the figure is 0.461 µM [falling, partial curve, poor fit]; as for `COc1ccc(N2C(=O)CSC23CCCCC3)cc1`, 29.1 µM [falling, single point]; as for `CCOC(=O)c1c(C2CC2)csc1NC(=O)CSCc1c(C)noc1C`, 7.94 µM [rising, partial curve, poor fit].
For `COc1ccc(OC)c(NC(=O)c2nc(S(=O)(=O)Cc3ccccc3)ncc2Cl)c1`, the half-maximal activity concentration (AC50) was 2.82 µM [falling, full curve] under setting [1] and 3.98 µM [rising, full curve] under setting [2].
Turning to `COc1ccc(OC)c(NC(=O)CSc2nc3ccccc3c(=O)n2CCNC(C)=O)c1`, under setting [1], the half-maximal activity concentration (AC50) was 3.26 µM [rising, full curve, poor fit].
The same measure, in the same setting: as for `CN(CC(=O)Nc1ccccc1C(F)(F)F)C(=O)c1cccc(-n2cccc2)c1`, the figure is 6.51 µM [rising, full curve, poor fit]; as for `CCc1ccc(/C=C/c2c([N+](=O)[O-])c(=O)n(C)c(=O)n2C)cc1`, 10 µM [falling, partial curve, poor fit].
Still for that read-out and setting: as for `CC(=O)Nc1ccc(NC(=O)CSc2nnc(-c3cc(C)[nH]n3)n2N)cc1`, the figure is 35.5 µM [rising, single point]; as for `CCOc1ccc(C)cc1S(=O)(=O)n1cnc2ccccc21`, 1.26 µM [rising, full curve, poor fit].
For the compound `CN1C(=O)C(O)(CC(=O)c2ccccc2O)c2cc(Br)ccc21` (configuration not stated), the concentration at half-maximal activity (AC50) is 22.4 µM [rising, single point] and 6.51 µM [falling, partial curve, poor fit] under setting [1]; 17.8 µM [falling, single point] and 23.1 µM [falling, single point] under setting [2].
For the compound `CN(C)c1nc(NCc2ccccc2)nc(N/N=C/c2ccccc2F)n1`, under setting [1], the AC50 is 2.51 µM [rising, single point].
`CCOCCCNC1=C(Cl)C(=O)c2ccccc2C1=O`: the AC50 under setting [2] was 14.1 µM [rising, partial curve, poor fit].
In the case of `Cc1cccnc1NC(=O)c1ccc2nc(N)sc2c1`, the half-maximal activity concentration (AC50) under setting [1] was 0.116 µM [falling, full curve, poor fit].
On the same count and under the same terms, the same measure for `CC(=O)NC(CC(=O)Nc1nc(C)cs1)c1ccccc1` (configuration not stated): 10 µM [rising, partial curve, poor fit].
On to `CCOc1ccc(Br)cc1C1=CC(=O)C[C@H](c2ccc(OC)cc2)C1`, for which the AC50 is 3.66 µM [rising, full curve] under setting [1] and 20.6 µM [falling, single point] under setting [2].
Turning to `CC1(C)CC(=O)C2=C(C1)O[C@@]1(CCCCN3C(=O)c4ccccc4C3=O)Cc3cc(C#N)ccc3C2O1`, the half-maximal activity concentration (AC50) under setting [2] is 2.82 µM [rising, partial curve, poor fit].
Turning to `CCCCn1nc(C(=O)NCc2ccccc2CN2CCCC2)c2ccccc2c1=O`, under setting [1], the AC50 was 0.92 µM [falling, partial curve, poor fit].
On the same count and under the same terms, the same measure for `CCCCN(CC)C(=S)Nc1ccc2nc(N3CCN(C)CC3)cc(C)c2c1`: 7.08 µM [falling, partial curve, poor fit]; for `CC(=O)NC1C(=O)N(Cc2ccccc2)c2ccc(Br)cc21` (configuration not stated): 35.5 µM [falling, partial curve, poor fit].
Turning to `CC(C)c1nnc(NC(=O)CSc2ccccc2)s1`, the half-maximal activity concentration (AC50) under setting [1] is 2.91 µM [rising, partial curve, poor fit].
The same measure, in the same setting: as for `COc1ccc(CC(=O)Nc2nnc(C)s2)cc1`, the figure is 1.64 µM [rising, single point]; as for `N#CC(C#N)=CC1=C2OC(c3ccccc3)=CC(c3ccccc3)=C2CCC1`, 1.84 µM [rising, partial curve, poor fit].
Regarding `COc1cc2c(cc1OC)C(=S)NC(C)(C)C2`, the AC50 is 22.4 µM [rising, partial curve, poor fit] under setting [1] and 32.6 µM [falling, partial curve, poor fit] under setting [2].
On to `COc1ccc2sc(-c3ccc(N(C)C)cc3)c(-c3ccc4cc[nH]c4c3)c2c1`, for which the concentration at half-maximal activity (AC50) under setting [1] is 0.731 µM [rising, partial curve, poor fit].
The same measure, in the same setting: as for `CSc1ccccc1OCc1cc(C(=O)NCCCn2nc(C)cc2C)no1`, the figure is 6.31 µM [falling, partial curve, poor fit].
